PMC7617243
No constants are given. Whether binding was seen depends on the method and setting. Binding seen in cells or lysates may run through a third protein. Some results given as binding are weak or reduced against the parent protein; the word gives no strength. Where a sequence is shown, tags or fusion partners need not be part of it.

By UniProt entry, the sequences of proteins in these tests, tags left out.
UniProt Q6PD10: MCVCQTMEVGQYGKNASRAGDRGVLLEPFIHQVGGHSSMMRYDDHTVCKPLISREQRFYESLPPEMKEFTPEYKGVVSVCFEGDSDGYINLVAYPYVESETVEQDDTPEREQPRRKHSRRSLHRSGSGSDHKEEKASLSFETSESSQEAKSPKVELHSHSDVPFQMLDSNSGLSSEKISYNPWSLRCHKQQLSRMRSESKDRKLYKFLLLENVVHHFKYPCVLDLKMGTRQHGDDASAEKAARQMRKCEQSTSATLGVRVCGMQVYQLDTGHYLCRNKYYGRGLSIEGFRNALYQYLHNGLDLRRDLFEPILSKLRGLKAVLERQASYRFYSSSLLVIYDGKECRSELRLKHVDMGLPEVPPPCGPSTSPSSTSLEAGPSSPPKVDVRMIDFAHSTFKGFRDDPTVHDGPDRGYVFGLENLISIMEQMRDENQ

T1: Flag-tagged apoA-I (made in HEK 293 cells) (UniProt Q00623)
T1 sequence: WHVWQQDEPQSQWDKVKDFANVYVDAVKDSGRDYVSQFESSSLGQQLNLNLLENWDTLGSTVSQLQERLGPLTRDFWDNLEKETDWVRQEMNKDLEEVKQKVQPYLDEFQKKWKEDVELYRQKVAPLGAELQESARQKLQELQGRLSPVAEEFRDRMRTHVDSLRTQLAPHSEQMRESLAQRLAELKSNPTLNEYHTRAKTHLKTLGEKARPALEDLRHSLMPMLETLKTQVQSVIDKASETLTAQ

T2: HA-tagged UBE4A (UniProt E9Q735)
T2 sequence: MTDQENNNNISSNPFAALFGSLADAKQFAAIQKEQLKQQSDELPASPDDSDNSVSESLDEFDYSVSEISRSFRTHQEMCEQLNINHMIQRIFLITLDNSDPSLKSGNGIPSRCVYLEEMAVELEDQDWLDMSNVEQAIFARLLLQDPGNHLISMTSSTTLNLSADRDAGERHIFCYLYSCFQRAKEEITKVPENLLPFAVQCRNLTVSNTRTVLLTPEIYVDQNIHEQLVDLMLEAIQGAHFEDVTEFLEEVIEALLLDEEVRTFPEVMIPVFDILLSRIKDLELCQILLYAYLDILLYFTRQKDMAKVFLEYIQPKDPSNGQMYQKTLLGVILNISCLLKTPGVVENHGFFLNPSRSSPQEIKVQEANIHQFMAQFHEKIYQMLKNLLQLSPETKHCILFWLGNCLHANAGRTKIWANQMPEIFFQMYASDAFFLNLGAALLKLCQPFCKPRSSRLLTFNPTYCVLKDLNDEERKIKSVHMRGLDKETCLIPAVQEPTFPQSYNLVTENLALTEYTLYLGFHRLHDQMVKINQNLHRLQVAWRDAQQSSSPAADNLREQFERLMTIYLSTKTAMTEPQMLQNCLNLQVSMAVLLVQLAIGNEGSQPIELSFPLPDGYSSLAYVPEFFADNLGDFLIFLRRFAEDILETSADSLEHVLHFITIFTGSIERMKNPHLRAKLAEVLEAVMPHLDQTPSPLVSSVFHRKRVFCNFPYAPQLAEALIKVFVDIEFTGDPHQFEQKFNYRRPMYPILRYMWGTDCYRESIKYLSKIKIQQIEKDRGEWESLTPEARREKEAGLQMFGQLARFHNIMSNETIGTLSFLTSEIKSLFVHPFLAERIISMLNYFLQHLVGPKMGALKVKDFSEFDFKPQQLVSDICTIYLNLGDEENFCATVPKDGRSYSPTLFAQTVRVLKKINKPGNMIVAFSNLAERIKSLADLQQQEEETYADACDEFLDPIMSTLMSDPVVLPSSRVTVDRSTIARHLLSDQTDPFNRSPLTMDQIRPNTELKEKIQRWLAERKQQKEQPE


Experiments:
Assay in all cases: co-IP; tagged proteins overexpressed together (HEK 293 cells named for Fig. 3C, G, H; cells not named for Fig. 3E, F); lysis buffer 50 mM Tris-HCl pH 7.4, 100 mM NaCl, 0.5% Igepal CA630, 5 mM MgCl2; primary antibody overnight at 4°C, protein A/G beads
[1] = molecular target: T1, Flag-tagged apoA-I (made in HEK 293 cells)
HA-tagged UBE4A = molecular target: T2, HA-tagged UBE4A
Myc-tagged WT IP6K1 = Myc-tagged WT IP6K1 (UniProt Q6PD10)

| binding [1] | binding (HA-tagged UBE4A) | binding (Myc-tagged WT IP6K1) | Molecule |
| --- | --- | --- | --- |
| binds | – | – | Myc-tagged WT IP6K1 (from UniProt Q6PD10 1-433) (enzyme) |
| – | binds | binds | Flag-tagged apoA-I (made in HEK 293 cells) (protein, UniProt Q00623 19-264) WHVWQQDEPQSQWDKVKDFANVYVDAVKDSGRDYVSQFESSSLGQQLNLNLLENWDTLGSTVSQLQERLGPLTRDFWDNLEKETDWVRQEMNKDLEEVKQKVQPYLDEFQKKWKEDVELYRQKVAPLGAELQESARQKLQELQGRLSPVAEEFRDRMRTHVDSLRTQLAPHSEQMRESLAQRLAELKSNPTLNEYHTRAKTHLKTLGEKARPALEDLRHSLMPMLETLKTQVQSVIDKASETLTAQ |
